The other results are listed elsewhere or left out.
Compound: C#Cc1cccc(Nc2ncnc3cc(OCCOC)c(OCCOC)cc23)c1 [erlotinib]
Experiment: log2 fold change, soluble protein after heating vs DMSO (PISA); higher = thermal stabilisation; K562 lysate, 10 uM; active = over 0.2 and 3.5 SD of the protein, either way, in both replicates (recomputed)
In short: (§1)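 Quantification was by TMTpro 16plex LC-MS/MS with equalised channel sums, applied to the supernatant after 21,000xg for 90 min. Samples were crude K562 extract at 1 mg/mL protein in PBS pH 7.4 with 1 mM MgCl2, treated with 10 μM compound for 30 min, heated for 3 min across 48°C-58°C, pooled and brought to 0.5% NP-40 at 4°C. Values are log-two fold changes in thermal stability relative to solvent controls, from duplicates.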

Sequences of proteins named here, by UniProt entry; tags and fusion partners are left off. A change or cut given only in a name is not applied to a line headed by its entry.
UniProt Q9UQB8: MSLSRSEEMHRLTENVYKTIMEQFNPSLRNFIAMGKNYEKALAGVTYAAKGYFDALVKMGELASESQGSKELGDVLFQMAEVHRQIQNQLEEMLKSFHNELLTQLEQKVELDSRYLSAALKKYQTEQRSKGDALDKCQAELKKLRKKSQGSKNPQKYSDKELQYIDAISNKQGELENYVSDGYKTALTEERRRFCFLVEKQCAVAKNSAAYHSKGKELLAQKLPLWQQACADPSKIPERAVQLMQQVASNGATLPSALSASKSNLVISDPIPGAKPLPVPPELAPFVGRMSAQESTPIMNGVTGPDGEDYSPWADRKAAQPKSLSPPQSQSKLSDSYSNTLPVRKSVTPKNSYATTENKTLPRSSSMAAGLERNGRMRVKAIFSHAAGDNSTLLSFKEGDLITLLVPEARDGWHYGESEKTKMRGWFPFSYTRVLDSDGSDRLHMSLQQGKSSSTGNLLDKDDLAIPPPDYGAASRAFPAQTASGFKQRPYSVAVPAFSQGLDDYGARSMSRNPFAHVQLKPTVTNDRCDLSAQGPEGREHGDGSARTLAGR
UniProt P46379: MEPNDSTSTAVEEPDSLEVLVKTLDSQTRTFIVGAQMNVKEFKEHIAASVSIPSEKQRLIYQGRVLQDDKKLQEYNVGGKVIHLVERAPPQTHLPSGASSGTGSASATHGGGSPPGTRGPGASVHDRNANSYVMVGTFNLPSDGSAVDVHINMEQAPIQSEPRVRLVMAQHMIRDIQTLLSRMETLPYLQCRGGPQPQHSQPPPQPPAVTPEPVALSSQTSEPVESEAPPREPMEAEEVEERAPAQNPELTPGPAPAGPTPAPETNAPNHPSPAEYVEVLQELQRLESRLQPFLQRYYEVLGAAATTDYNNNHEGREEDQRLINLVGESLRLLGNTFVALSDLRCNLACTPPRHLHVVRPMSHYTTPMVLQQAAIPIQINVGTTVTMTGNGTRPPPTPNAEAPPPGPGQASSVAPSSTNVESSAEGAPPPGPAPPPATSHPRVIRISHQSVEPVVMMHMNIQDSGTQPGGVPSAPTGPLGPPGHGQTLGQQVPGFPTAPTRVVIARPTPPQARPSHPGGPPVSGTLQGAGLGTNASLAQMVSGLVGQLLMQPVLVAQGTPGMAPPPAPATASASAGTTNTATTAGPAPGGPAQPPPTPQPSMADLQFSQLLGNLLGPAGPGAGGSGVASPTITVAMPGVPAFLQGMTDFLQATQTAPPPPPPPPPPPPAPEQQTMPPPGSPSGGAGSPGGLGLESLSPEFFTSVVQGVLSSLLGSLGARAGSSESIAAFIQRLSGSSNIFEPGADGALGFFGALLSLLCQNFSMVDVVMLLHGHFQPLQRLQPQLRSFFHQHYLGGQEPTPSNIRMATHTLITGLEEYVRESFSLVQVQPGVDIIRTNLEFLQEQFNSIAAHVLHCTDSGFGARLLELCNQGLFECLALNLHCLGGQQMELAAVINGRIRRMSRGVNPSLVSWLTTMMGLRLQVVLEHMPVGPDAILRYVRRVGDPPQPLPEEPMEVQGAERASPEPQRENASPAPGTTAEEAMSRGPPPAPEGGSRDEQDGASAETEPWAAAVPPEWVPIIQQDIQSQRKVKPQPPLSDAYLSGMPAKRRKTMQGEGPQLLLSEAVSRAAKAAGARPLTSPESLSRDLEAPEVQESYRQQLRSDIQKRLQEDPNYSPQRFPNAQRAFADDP
UniProt Q99933: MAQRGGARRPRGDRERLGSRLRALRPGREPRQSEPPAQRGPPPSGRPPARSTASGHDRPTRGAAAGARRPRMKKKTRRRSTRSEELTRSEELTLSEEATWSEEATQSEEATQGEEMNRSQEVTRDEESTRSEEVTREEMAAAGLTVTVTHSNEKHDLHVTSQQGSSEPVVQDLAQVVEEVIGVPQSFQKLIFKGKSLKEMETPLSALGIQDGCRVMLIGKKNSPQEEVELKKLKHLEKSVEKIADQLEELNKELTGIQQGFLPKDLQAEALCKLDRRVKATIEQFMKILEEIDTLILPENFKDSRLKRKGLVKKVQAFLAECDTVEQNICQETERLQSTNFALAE
UniProt Q8TDH9: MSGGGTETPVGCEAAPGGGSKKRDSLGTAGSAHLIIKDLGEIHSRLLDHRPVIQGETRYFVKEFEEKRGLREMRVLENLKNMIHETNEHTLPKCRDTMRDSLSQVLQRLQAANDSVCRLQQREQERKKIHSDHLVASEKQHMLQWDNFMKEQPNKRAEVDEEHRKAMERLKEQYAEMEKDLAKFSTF
UniProt Q7KYR7: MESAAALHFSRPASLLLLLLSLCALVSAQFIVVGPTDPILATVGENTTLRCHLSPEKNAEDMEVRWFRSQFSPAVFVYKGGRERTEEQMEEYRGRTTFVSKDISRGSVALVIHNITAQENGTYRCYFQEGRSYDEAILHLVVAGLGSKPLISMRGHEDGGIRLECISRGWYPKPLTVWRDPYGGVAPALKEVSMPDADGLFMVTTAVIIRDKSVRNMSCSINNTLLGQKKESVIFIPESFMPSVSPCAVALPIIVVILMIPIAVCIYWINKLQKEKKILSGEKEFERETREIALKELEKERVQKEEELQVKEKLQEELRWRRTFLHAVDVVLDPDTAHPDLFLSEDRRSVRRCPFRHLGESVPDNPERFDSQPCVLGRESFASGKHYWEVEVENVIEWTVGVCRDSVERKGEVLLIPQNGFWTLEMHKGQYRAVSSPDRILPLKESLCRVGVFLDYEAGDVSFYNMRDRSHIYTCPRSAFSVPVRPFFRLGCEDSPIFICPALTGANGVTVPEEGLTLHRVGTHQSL
UniProt Q92843: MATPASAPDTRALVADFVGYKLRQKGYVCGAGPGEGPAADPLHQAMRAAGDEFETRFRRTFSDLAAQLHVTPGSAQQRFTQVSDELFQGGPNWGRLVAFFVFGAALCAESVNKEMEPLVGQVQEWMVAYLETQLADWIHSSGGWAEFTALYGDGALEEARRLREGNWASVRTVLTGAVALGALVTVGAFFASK
UniProt Q8TDN6: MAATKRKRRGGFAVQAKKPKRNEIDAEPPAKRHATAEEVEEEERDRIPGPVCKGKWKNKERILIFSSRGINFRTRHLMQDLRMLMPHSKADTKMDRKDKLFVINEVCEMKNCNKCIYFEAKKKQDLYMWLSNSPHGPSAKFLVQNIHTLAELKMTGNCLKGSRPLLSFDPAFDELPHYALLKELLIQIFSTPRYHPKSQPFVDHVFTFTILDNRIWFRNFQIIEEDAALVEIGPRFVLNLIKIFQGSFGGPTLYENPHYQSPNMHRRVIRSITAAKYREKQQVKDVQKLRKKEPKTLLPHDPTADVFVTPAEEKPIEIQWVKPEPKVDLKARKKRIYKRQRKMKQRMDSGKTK
UniProt Q96KE9: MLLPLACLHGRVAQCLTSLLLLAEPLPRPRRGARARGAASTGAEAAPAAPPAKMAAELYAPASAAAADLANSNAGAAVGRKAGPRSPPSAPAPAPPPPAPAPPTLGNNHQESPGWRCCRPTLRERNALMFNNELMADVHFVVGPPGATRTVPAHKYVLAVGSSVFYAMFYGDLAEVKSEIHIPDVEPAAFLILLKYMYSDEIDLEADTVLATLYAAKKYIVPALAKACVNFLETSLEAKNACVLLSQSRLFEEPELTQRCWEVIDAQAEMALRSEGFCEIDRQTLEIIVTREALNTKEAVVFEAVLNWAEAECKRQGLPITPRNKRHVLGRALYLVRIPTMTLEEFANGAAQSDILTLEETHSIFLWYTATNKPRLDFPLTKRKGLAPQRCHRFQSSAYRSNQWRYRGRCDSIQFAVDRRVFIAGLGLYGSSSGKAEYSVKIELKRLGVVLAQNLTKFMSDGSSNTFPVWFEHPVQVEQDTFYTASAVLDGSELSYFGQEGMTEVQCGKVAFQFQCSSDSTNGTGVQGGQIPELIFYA
UniProt Q6W2J9: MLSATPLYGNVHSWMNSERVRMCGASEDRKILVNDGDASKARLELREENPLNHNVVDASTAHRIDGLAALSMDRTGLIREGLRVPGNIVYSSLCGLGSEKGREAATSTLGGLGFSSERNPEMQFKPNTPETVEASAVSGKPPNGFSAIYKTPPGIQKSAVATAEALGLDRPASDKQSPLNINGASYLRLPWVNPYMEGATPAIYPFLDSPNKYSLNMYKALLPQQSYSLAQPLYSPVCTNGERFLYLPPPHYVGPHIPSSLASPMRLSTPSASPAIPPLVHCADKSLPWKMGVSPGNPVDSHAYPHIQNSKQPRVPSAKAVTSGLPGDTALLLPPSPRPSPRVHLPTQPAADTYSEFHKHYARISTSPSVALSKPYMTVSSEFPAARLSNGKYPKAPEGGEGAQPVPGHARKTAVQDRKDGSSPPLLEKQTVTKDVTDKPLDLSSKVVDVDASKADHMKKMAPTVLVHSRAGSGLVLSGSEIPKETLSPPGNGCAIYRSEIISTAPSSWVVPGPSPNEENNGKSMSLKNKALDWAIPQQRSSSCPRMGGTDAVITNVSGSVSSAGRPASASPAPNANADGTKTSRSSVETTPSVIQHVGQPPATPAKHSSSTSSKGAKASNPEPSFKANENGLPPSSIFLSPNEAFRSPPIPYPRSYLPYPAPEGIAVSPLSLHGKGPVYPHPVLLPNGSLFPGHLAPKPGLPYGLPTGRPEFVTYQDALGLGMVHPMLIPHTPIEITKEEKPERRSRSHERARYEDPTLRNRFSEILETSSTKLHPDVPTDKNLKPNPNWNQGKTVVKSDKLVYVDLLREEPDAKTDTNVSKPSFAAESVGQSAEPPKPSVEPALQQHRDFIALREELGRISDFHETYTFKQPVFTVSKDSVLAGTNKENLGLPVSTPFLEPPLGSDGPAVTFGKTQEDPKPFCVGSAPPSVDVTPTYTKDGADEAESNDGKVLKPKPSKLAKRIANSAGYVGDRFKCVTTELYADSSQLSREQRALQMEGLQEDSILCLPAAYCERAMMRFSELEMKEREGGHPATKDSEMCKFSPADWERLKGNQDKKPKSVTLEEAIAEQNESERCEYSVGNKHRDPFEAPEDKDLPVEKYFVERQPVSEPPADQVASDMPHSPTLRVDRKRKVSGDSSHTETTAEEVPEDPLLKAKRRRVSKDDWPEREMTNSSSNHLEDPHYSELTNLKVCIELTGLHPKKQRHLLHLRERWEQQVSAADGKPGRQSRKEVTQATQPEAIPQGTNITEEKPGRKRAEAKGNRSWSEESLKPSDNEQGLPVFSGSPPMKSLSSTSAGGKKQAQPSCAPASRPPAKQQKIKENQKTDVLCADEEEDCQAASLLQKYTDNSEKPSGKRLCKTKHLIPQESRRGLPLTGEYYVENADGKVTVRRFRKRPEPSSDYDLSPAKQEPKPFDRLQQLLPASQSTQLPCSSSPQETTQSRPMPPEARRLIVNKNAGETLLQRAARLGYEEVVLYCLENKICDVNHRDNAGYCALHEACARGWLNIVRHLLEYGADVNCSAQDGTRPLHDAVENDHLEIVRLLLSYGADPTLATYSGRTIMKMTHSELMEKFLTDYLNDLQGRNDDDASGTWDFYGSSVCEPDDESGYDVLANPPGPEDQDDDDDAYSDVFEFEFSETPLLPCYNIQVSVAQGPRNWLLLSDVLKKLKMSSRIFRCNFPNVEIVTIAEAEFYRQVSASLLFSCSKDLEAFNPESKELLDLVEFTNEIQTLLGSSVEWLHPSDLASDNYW
UniProt Q86WA6: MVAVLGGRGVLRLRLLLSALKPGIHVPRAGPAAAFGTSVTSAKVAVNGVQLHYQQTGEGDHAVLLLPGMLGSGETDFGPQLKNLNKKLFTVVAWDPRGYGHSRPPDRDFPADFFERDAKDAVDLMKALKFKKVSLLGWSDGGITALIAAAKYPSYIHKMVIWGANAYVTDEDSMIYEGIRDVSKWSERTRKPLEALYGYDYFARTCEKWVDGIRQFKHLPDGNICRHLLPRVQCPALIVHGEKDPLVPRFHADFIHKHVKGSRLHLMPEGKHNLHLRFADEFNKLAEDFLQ
UniProt O95816: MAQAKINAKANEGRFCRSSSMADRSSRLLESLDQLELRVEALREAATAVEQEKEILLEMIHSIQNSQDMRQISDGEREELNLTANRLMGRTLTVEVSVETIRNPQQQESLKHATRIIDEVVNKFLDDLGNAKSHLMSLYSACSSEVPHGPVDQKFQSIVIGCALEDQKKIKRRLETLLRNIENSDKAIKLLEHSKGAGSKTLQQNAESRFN
UniProt O75934: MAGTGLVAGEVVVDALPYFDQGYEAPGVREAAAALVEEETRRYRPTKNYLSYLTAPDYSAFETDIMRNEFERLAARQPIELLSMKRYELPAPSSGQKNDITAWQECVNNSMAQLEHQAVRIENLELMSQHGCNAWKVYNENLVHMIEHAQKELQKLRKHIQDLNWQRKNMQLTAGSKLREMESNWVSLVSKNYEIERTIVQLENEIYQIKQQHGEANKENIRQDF
UniProt P55957: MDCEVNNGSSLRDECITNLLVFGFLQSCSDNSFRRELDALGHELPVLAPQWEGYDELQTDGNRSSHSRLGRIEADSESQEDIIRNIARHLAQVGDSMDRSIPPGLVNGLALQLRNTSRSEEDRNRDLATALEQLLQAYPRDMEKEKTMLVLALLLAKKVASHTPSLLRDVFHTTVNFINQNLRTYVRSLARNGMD

Target | log2 fold change
BRD8 isoform 2 (UniProt Q9H0E9) | inactive: -0.003
BAIAP2 (UniProt Q9UQB8) | inactive: 0
BAG6 isoform 3 (UniProt P46379) | inactive: -0.003
BPTF (UniProt Q12830) | inactive: 0.034
BAG1 (UniProt Q99933) | inactive: -0.031
BCL7B (UniProt Q9BQE9) | inactive: -0.062
BCLAF1 (UniProt Q9NYF8) | inactive: 0.032
BLOC1S5 (UniProt Q8TDH9) | inactive: -0.027
BTN2A1 (UniProt Q7KYR7) | inactive: 0.013
BAG5 isoform 2 (UniProt Q9UL15) | inactive: 0.031
BCL2L2 isoform 2 (UniProt Q92843) | inactive: 0.009
BRCA1 isoform 7 (UniProt P38398) | inactive: 0.003
BRIX1 (UniProt Q8TDN6) | inactive: -0.012
BCL7C isoform 2 (UniProt Q8WUZ0) | inactive: -0.034
BTBD6 (UniProt Q96KE9) | inactive: 0.135
BCOR (UniProt Q6W2J9) | inactive: 0.053
BORCS5 (UniProt Q969J3) | inactive: -0.014

Target | log2 fold change
BPHL (UniProt Q86WA6) | inactive: -0.054
BET1 (UniProt O15155) | inactive: 0.025
BNIP2 (UniProt J3KN59) | inactive: -0.075
BORCS6 (UniProt Q96GS4) | inactive: -0.001
BIRC5 (UniProt O15392) | inactive: 0.002
BCAR1 isoform 6 (UniProt P56945) | inactive: 0.005
BAG2 (UniProt O95816) | inactive: -0.066
BARD1 (UniProt Q99728) | inactive: 0.022
BTAF1 (UniProt O14981) | inactive: 0.044
BSG (UniProt P35613) | inactive: -0.037
BCAS2 (UniProt O75934) | inactive: 0.047
BCKDHB (UniProt P21953) | inactive: 0.013
BTF3L4 (UniProt Q96K17) | inactive: -0.054
BID isoform 2 (UniProt P55957) | inactive: -0.016
BCL2L13 (UniProt Q9BXK5) | inactive: 0.018
BCKDK (UniProt O14874) | inactive: -0.041
BLOC1S3 (UniProt Q6QNY0) | inactive: 0.047

Compound: C/C(=N\NC(=O)C1=CC(=CC=C1)S(=O)(=O)N2CCOCC2)/C3=C(C=CC(=C3)Cl)O
Experiment: as above
In short: as §1

Target | log2 fold change
BRD8 isoform 2 (UniProt Q9H0E9) | inactive: 0.049
BAIAP2 (UniProt Q9UQB8) | inactive: 0.083
BAG6 isoform 3 (UniProt P46379) | inactive: 0.005
BPTF (UniProt Q12830) | inactive: -0.001
BAG1 (UniProt Q99933) | inactive: 0.009
BCL7B (UniProt Q9BQE9) | inactive: 0.243
BCLAF1 (UniProt Q9NYF8) | inactive: 0.026
BLOC1S5 (UniProt Q8TDH9) | inactive: -0.045
BTN2A1 (UniProt Q7KYR7) | inactive: -0.143
BAG5 isoform 2 (UniProt Q9UL15) | inactive: 0
BCL2L2 isoform 2 (UniProt Q92843) | inactive: -0.051
BRCA1 isoform 7 (UniProt P38398) | inactive: 0.05
BRIX1 (UniProt Q8TDN6) | inactive: -0.117
BCL7C isoform 2 (UniProt Q8WUZ0) | inactive: 0.035
BTBD6 (UniProt Q96KE9) | inactive: 0.08
BCOR (UniProt Q6W2J9) | inactive: 0.069
BORCS5 (UniProt Q969J3) | inactive: -0.027

Target | log2 fold change
BPHL (UniProt Q86WA6) | active: -0.445
BET1 (UniProt O15155) | inactive: -0.092
BNIP2 (UniProt J3KN59) | inactive: -0.006
BORCS6 (UniProt Q96GS4) | inactive: -0.027
BIRC5 (UniProt O15392) | inactive: -0.008
BCAR1 isoform 6 (UniProt P56945) | inactive: -0.043
BAG2 (UniProt O95816) | inactive: -0.046
BARD1 (UniProt Q99728) | inactive: -0.178
BTAF1 (UniProt O14981) | inactive: -0.035
BSG (UniProt P35613) | inactive: 0.001
BCAS2 (UniProt O75934) | inactive: -0.038
BCKDHB (UniProt P21953) | inactive: -0.034
BTF3L4 (UniProt Q96K17) | inactive: 0.007
BID isoform 2 (UniProt P55957) | inactive: -0.019
BCL2L13 (UniProt Q9BXK5) | inactive: -0.052
BCKDK (UniProt O14874) | inactive: -0.168
BLOC1S3 (UniProt Q6QNY0) | inactive: -0.058

Reference: the supplement of paper PMC10849652
